The AC50 is the concentration giving half of the maximal activity seen.

This is one part of the list. The main result of the screen is listed elsewhere. These columns were measured beside it and carry no call. Most of these compounds were active or inconclusive in the main read-out, so they are no random draw. The note in brackets gives the kind of curve behind each potency; many fits are weak.

The assay in a line: qHTS Assay to Find Inhibitors of Chronic Active B-Cell Receptor Signaling. Conditions: ABC-DLBCL IkBa-CBG/CBR reporter, luminescence ratio (green luciferase fused to IkBa over red control in TMD8 lymphoma cells), 4 h. A digest of the protocol:
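TMD8 human ABC-DLBCL cells with doxycycline-inducible IκBα–green luciferase fusion and unfused red luciferase, in 0.5% FBS medium; compounds up to 46 uM, 4 h at 37C. Green/red luminescence ratio, filter-overlap corrected, fitted to concentration-response curves.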
On the technique in general: qHTS replaces the single test concentration by a dilution series.

Setting [1] is: measured here: CBR red luminescence, cell number.
Where [2] appears, read: measured here: IkBa-CBG green luminescence.

With `COc1ccc(CC(=O)Nc2nnc(SCc3ccccc3)s2)cc1S(=O)(=O)N1CCOCC1`, under setting [1], the half-maximal activity concentration (AC50) is 3.26 µM [rising, partial curve, poor fit].

On to `Fc1ccccc1N1CCN(CCCc2ccccc2)CC1`, for which the AC50 under setting [1] was 7.08 µM [rising, partial curve, poor fit].

Regarding `COc1cccc(NC(=O)CN(C2=NC3CS(=O)(=O)CC3S2)c2cccc(C)c2)c1` (configuration not stated), the AC50 under setting [1] was 12.6 µM [falling, single point].

With `COc1ccc(C2NC(c3ccc(OC)cc3)C(C)C(=O)C2C)cc1` (configuration not stated), the AC50 under setting [1] was 0.112 µM [falling, full curve, poor fit].

On to `O=C1OCCC1Sc1nc2ccccc2c(=O)n1-c1ccc(F)cc1` (configuration not stated), for which the half-maximal activity concentration (AC50) under setting [1] was 0.282 µM [rising, full curve, poor fit].

As for `CC(=O)NC(c1cccs1)c1cc(F)c2cccnc2c1O` (configuration not stated), under setting [1], the AC50 is 32.6 µM [falling, single point].

With `CCN(CC(=O)Nc1ccc(NC(C)=O)cc1)C(=O)Cc1cccc2ccccc12`, the half-maximal activity concentration (AC50) under setting [1] was 7.94 µM [falling, partial curve, poor fit].

For the molecule `CCN(C[C@H]1N[C@@](CC)(C(=O)OC)[C@H]2C(=O)N(C)C(=O)[C@@H]12)S(=O)(=O)c1ccc(OC)cc1`, the concentration at half-maximal activity (AC50) under setting [1] is 0.366 µM [rising, full curve, poor fit].

For `Cc1nc2ccccc2c(=O)n1-c1ccc(NS(=O)(=O)c2ccccc2)cc1`, the half-maximal activity concentration (AC50) under setting [1] was 7.31 µM [falling, partial curve, poor fit].

Turning to `COc1ccc(C(CC(=O)NCCCN2CCOCC2)NS(=O)(=O)c2ccc(C)cc2)cc1` (configuration not stated), the AC50 under setting [1] is 12.6 µM [rising, single point].

Turning to `Nc1c(-c2ccccc2)c(CSc2nc3ccccc3[nH]2)nn1-c1ccc(C(=O)O)cc1`, the AC50 under setting [1] was 16.4 µM [falling, partial curve, poor fit].

`CCc1ccc(/C=C2/SC(=S)N(CCC(=O)Nc3cccc(C(=O)O)c3)C2=O)cc1`: under setting [1], the concentration at half-maximal activity (AC50) was 12.6 µM [falling, partial curve].

Turning to `CN(Cc1cccnc1)Cc1cn(C)nc1-c1ccc(Oc2ccccc2)cc1`, the AC50 under setting [1] was 20 µM [rising, partial curve, poor fit].

`COc1ccc2ccc(OC)c(/C=N/n3cnnc3)c2c1`: under setting [1], the AC50 was 0.631 µM [rising, full curve, poor fit].

In the case of `CC1(C)CC(=O)c2sc(NC(=O)c3ccc4ncsc4c3)nc2C1`, under setting [1], the concentration at half-maximal activity (AC50) was 8.2 µM [falling, partial curve].

With `c1ccc(COc2ccc(CN3CCN(c4ccccn4)CC3)cc2)cc1`, the AC50 under setting [1] was 6.51 µM [rising, single point].

As for `O=C(CCCOc1ccccc1)NN1C(=O)NC2(CCCCC2)C1=O`, the AC50 under setting [1] was 1.3 µM [rising, partial curve, poor fit].

For `COc1ccc(OCc2nnc(SCC(=O)Nc3ccccc3F)o2)cc1`, the AC50 under setting [1] is 12.6 µM [falling, partial curve, poor fit].

On to `CN(Cc1cnn(C)c1)Cc1nc(COc2ccccc2)no1`, for which the AC50 under setting [1] was 11.2 µM [rising, partial curve, poor fit].

`Cn1c(SCC(=O)Nc2ccccc2)nc2ccccc2c1=O`: the AC50 under setting [1] is 7.94 µM [falling, partial curve].

`CC1=CC(C)(C)N2C(=O)C(=Nc3ccc(O)cc3)c3cccc1c32`: the AC50 under setting [2] was 35.5 µM [falling, partial curve, poor fit].

Regarding `O=C(Nc1nc2c(Cl)ccc(Cl)c2s1)C1CC1`, the concentration at half-maximal activity (AC50) is, setting by setting: under setting [1], 0.562 µM [falling, full curve]; under setting [2], 2.82 µM [rising, full curve, poor fit].

As to `O=C(OCC(=O)C12CC3CC(CC(C3)C1)C2)c1ccc(CO)cc1`, under setting [1], the concentration at half-maximal activity (AC50) is 0.461 µM [rising, full curve, poor fit].

Take `NC(=S)N/N=C1\CCSc2ccc(Cl)cc21`: the AC50 under setting [1] is 10 µM [falling, partial curve, poor fit].

As for `O=C(Nc1cccc(F)c1)C1CCN(C(=O)c2ccccc2Cl)CC1`, the concentration at half-maximal activity (AC50) under setting [1] is 29.1 µM [rising, single point].

As to `O=C(NC1CCC(O)CC1)c1cccc2cccnc12` (configuration not stated), under setting [1], the concentration at half-maximal activity (AC50) was 10 µM [rising, partial curve].

Consider `CCN1C(=O)C(C(=O)Nc2ccc(OC)cc2)C2CC1(C)Oc1ccccc12` (configuration not stated), for which the AC50 under setting [1] is 3.66 µM [rising, single point].

In the case of `CC(/C=C1\SC(=S)N(c2ccc(C(=O)O)cc2)C1=O)=C\c1ccccc1`, the half-maximal activity concentration (AC50) under setting [1] was 14.1 µM [falling, partial curve, poor fit].

On to `Cc1ccc(C)c(N=Nc2nc3ccccc3n2C)c1`, for which the AC50 under setting [1] was 11.2 µM [falling, single point].

Regarding `C=CCn1c(SCC(=O)O)nnc1-c1cccs1`, under setting [1], the AC50 was 0.092 µM [falling, full curve, poor fit].

Take `COc1ccccc1NC(=O)COc1ccc(Br)cc1CO`: under setting [1], the AC50 was 4.11 µM [falling, single point].

On to `CCCCn1nc(C(=O)Nc2ccc3c(c2)OCCO3)c2ccccc2c1=O`, for which the concentration at half-maximal activity (AC50) under setting [1] is 11.6 µM [falling, partial curve].

For the molecule `NCCNC(=O)c1c(NC(=O)c2ccccc2)sc2c1CCCC2`, the concentration at half-maximal activity (AC50) under setting [1] was 2.51 µM [falling, full curve, poor fit].

Consider `O=C(N/N=C/c1cccc(F)c1)c1ccc(Cl)cc1`, for which the half-maximal activity concentration (AC50) under setting [1] is 11.2 µM [falling, partial curve, poor fit].

`O=C(NCc1ccco1)NC1CCCCC1`: under setting [1], the half-maximal activity concentration (AC50) was 25.9 µM [rising, single point].

With `Cc1nn(-c2ccccc2)c(Cl)c1/C=N/Nc1nnc(C)c(=O)[nH]1`, the half-maximal activity concentration (AC50) under setting [1] was 3.55 µM [rising, single point].

With `Fc1ccccc1OCCCCSc1ncccn1`, the AC50 under setting [1] was 0.398 µM [rising, full curve, poor fit].

On to `O=C1CCCC2=C1C(c1cccs1)n1ncnc1N2` (configuration not stated), for which, under setting [1], the AC50 is 9.2 µM [rising, partial curve, poor fit].

On to `CCOC(=O)c1cnc2ccccc2c1Nc1ccc2c(c1)OCCO2`, for which, under setting [1], the AC50 is 23.1 µM [falling, partial curve, poor fit].

For `CN(C)C(=S)Nc1ccc2c(c1)OCCO2`, under setting [1], the AC50 is 0.562 µM [rising, full curve, poor fit].

`OCCNCCOCCOc1ccccc1-c1ccccc1`: the AC50 under setting [1] is 16.4 µM [falling, partial curve].

The values above are taken from PubChem BioAssay AID493014 (National Center for Advancing Translational Sciences (NCATS), 2011).
